Results of single-concentration screens

Sequences of proteins named here, by UniProt entry; tags and fusion partners are left off.
UniProt P9WPC5, whole entry: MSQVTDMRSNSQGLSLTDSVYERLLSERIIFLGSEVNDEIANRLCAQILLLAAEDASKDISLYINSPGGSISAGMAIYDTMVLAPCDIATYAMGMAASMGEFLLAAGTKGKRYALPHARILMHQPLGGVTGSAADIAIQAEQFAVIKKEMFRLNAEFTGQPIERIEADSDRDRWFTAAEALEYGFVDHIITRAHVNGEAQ
UniProt P9WPC3, whole entry partner: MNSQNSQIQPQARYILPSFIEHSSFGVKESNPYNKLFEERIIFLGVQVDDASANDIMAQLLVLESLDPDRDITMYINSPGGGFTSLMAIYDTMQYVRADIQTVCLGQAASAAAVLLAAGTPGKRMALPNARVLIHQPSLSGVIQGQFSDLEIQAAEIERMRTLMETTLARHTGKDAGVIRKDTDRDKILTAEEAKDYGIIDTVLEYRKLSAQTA
UniProt P9WNZ1, whole entry: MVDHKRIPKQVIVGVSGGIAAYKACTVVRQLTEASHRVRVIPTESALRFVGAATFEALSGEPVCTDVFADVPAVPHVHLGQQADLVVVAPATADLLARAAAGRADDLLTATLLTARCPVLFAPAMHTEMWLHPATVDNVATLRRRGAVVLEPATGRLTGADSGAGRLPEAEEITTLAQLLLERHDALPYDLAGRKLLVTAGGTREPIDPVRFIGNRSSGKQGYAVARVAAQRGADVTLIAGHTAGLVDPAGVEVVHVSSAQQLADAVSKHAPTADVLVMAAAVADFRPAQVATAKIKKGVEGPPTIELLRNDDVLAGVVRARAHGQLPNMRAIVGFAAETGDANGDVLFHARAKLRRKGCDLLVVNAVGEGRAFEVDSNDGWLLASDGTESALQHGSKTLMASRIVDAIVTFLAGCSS

Measurements from “University of Dundee, Small-Polar-MMV Screening Library” (2021), ChEMBL document CHEMBL3988442.

Toxoplasma: 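Assay of Toxoplasma gondii numbers, read through their beta-galactosidase reporter with a colour substrate. Concentration: 10 µM. Higher reads as fewer parasites (inferred from which compounds were picked for retests). About 67,000 compounds were tested under these conditions; 0.38% (about 260) showed 50% or more at least once.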
ClpP1P2: 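ClpP1P2, Mycobacterium tuberculosis (UniProt P9WPC5 and UniProt P9WPC3). Protease assay of ClpP1P2, read by the AMC dye that it sets free. Compounds at 50 µM. Direction is inferred from only a few compounds that gave an IC50; most scored high, so higher reads as stronger inhibition. Most other retested compounds had strongly negative values. Of about 69,000 compounds tested this way, about 10 (0.015%) reached 50% or more in at least one test.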
T. brucei: 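Whole-parasite assay of Trypanosoma brucei over 72 hours; the read-out is not stated. Compounds at 30 µM. Direction is inferred from retests: higher values go with stronger inhibition. Values scatter widely below zero; nearly all retest evidence comes from the higher of the two concentrations used. Size under these conditions: about 64,000 compounds, about 940 of them at 50% or above in at least one test.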
CoaBC: 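Enzyme assay of CoaBC with a phosphate dye (Biomol Green) read at 650 nm. Target: Coenzyme A biosynthesis protein CoaBC, Mycobacterium tuberculosis (UniProt P9WNZ1). Concentration: 30 µM. Higher reads as stronger inhibition, judged from the few compounds that gave an IC50. Most strong results did not repeat in a second test. Of about 67,000 compounds tested this way, about 40 (0.06%) reached 50% or more in at least one test.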

The filed quantity is “Percent Effect” (%). How 0% and 100% were set is not recorded. Most values in the screen are low, and negative values occur. Compounds were drawn at random from those tested, without regard to their results. A dash means the value is not listed here; it may have been measured.

compound,Toxoplasma,ClpP1P2,T. brucei,CoaBC
COc1ncccc1CNC1CCc2c(ccc(=O)n2C)C1.O=C(O)C(F)(F)F.O=C(O)C(F)(F)F (stereo not drawn),-2.903,-,-14.46,-
CC(C)c1nc(C2CCCN2Cc2ccno2)no1 (stereo not drawn),0.6353,-2.036,2.085,0.241
CN1C(=O)CCc2cc(NC(=O)C3CC3)ccc21,-6.306,10.79,-25.71,-1.48
CCSc1cc(C(=O)NCc2ccc(C(=O)NC)cc2)ccn1,6.154,-0.5334,-9.755,2.689
CC(C)c1ncc2c(n1)CN(CC(=O)Nc1ccncc1)CC2,6.789,-33.12,-24.58,10.6
Cc1cc(N2CCN(C3CCOCC3)CC(C(=O)N(C)C)C2)ncn1 (stereo not drawn),14.69,-4.765,-16.9,4.854
CCN1CCn2c(C)cnc2C12CCN(C(=O)NC)CC2.O=C(O)C(F)(F)F,-6.82,-,-20.19,-
O=C(C1CCC1)N1CCN(Cc2ccc(F)cc2)[C@H]2CS(=O)(=O)C[C@H]21,-,2.979,-,-3.752
Cc1c[nH]c(CN2CCCn3nc(CNS(C)(=O)=O)cc3C2)n1,-8.771,-0.5112,-30.31,0.7937
CCCc1nnsc1C(=O)N1CCN(CC(O)c2ccco2)CC1.Cl (stereo not drawn),-9.91,-,3.436,-
COc1cccc(CC(C)NC(=O)NCCNC(C)=O)c1 (stereo not drawn),-33.05,-19.82,-12.33,0.4808
CCc1ccccc1C(=O)N1C[C@@H](CN2CCOCC2)[C@@H](CO)C1,7.299,-5.591,-30.29,5.911
O=C(NC1CCC(N2C(=O)CCC2=O)CC1)c1c[nH]c2ccccc12 (stereo not drawn),18.94,-10.82,-15.23,13.18
CN(C)CCNC(=O)c1cc2c(s1)CCN2S(C)(=O)=O,8.63,-22.21,-6.682,-2.096
CSC(C)CCN1CCC(n2cc(C3CCCCC3)nn2)CC1 (stereo not drawn),3.806,-2.605,17.03,4.37
CC(OCC1CC1)C(=O)N1CCCN(c2nc3ccccc3[nH]2)CC1 (stereo not drawn),-0.7156,7.726,-150.2,5.992
Cc1nn(C)c(C)c1OCC(=O)N1CCCc2c(F)ccc(F)c21,5.53,-0.2615,-55.06,-0.638
c1cc(-c2cncnc2)cc(-c2ccn(CC3CCNC3)n2)c1 (stereo not drawn),-41.53,5.999,14.84,-40.91
COCCN(C(=O)c1ccsc1)c1ccc(C#N)cc1,5.305,0.8678,-31.77,0.319
CN(C)S(=O)(=O)N1CC[C@]2(O)CCN(Cc3cc(F)cc(F)c3)C[C@@H]2C1,-,-1.935,-,9.709
CO[C@@H]1CC[C@H]2[C@H]1OCCN2C(=O)COc1ccc(C)cc1,-,-5.649,-,1.975
CC(CNC(=O)c1ccc(F)cc1Cl)N1CCCC1 (stereo not drawn),-6.862,-0.007929,-17.44,0.8439
CC(C)CCN1CCC2(CC1)CN(C(=O)c1cnccn1)CCO2,-,1.69,-,-0.3807
Clc1snnc1CN1CCCCC1Cn1cccn1 (stereo not drawn),-15.18,-2.049,-,5.512
CCN(CC)C(CNC(=O)c1cccnc1-n1cncn1)c1ccsc1 (stereo not drawn),-1.309,-5.633,-7.418,-1.392
[H][C@@]12CS(=O)(=O)C[C@]1([H])N(Cc1ccc(OC)c(C)c1)CCN2CC1CC1,0.9377,-,-35.34,-
[H][C@]12CN(C(C)=O)CCN1C[C@H](c1ccccc1)[C@H]2C(=O)OCC,-11.87,-,6.294,-
CC1CCCN(Cc2ccc(C(N)=O)cc2)C1 (stereo not drawn),-28.99,-26.04,-24.44,3.299
Cc1cnc(C(=O)NCC2Cc3ccccc3O2)cn1 (stereo not drawn),-1.308,2.09,-55.33,0.3226
O=C(Nc1ccccc1F)C1=NOC2(CCNCC2)C1,-,5.791,-,-2.24
CC(C)n1nc2c(cc1=O)CN(Cc1nc(-c3ccco3)no1)CC2,7.16,3.951,-19.99,7.438
COc1ccc(CN2CCCCCC2c2cccs2)c(O)c1 (stereo not drawn),4.657,10.44,-18.25,-2.286
COCCCN(C)c1ncccc1I,-3.38,-8.725,-0.1891,7.563
COC(=O)c1ccc(N2CCN(C(=O)c3ccn(C)c(=O)c3)CC2)cc1,6.79,13.04,-2.821,0.8065
Cc1cc(-n2nnc(C(=O)O)c2-c2ccncc2)ccc1F,-0.7885,-1.347,-48.74,5.316
CNC(=O)CSc1nc2c(cnn2Cc2ccc(F)cc2)c(=O)[nH]1,4.05,5.753,-119.6,-2.772
O=C(NC1CCC1)C1CCC2(CN(C(=O)c3ccno3)C2)O1 (stereo not drawn),-0.3723,7.723,-44.19,-
COCCN1CCC2(CC1)CN(C(=O)C1CC1)c1ccc(F)cc12,-,-0.5246,-,4.835
O=C(CCCc1nnc(-c2ccccc2)o1)N1CCC1,-13.97,-5.665,-5.61,4.318
N#Cc1ccccc1C(=O)N1C[C@@H](CN2CCOCC2)[C@@H](CO)C1,12.33,-10.95,-17.13,3.498
O=C1CCCN1CCN1CCCCC1Cn1cncn1 (stereo not drawn),-0.6321,10.5,-34.06,5.128
Cc1cc(=O)c(C(=O)N2CCC(C(O)Cc3ccccc3)CC2)c(C)[nH]1 (stereo not drawn),-13.96,-0.3669,1.553,5.679
Cn1c(=O)n(C)c2nc(Br)c(CC(=O)c3ccccc3)n2c1=O,-0.8811,9.817,-39.97,0
Cc1nc(-c2ccccc2)n(CC(=O)N(C(C)C)C(C)C)n1,4.882,7.613,12.13,3.44
O=C(O)C(F)(F)F.[H][C@@]12CCN(Cc3c(C)noc3C)C[C@]1(C(=O)NC1CCCC1)CCO2,-11.71,-,25.41,-
CC(=O)N1CCCC1c1cncc(Oc2ccc(F)cc2)n1 (stereo not drawn),-22.11,7.128,-6.822,1.961
O=C(NCC1(Sc2ccccc2)CC1)c1cc[nH]n1,5.984,0.4645,-19.01,-0.7282
O=C(c1cn2ccsc2n1)N1CCOCC(O)(CN2CCCC2)C1 (stereo not drawn),4.6,12.98,-45.03,-5.221
CCOc1ccc(CC(CNC(=O)c2ccoc2)C(N)=O)cc1 (stereo not drawn),0.4135,8.109,-68.73,5.128
CCCN(Cc1nc(-c2ccoc2)oc1C)CC1CCCO1 (stereo not drawn),19.73,-9.531,-20.17,-14
CSC(C)Cc1c(-c2ccccc2)ncn1CCCNc1cccnc1 (stereo not drawn),3.991,6.576,-10.74,-
COCCn1cc2c(n1)C(CNCc1cccc(OC)c1)OCC2.O=C(O)C(F)(F)F (stereo not drawn),-14.85,-,-72.37,-